In publication PMC10811132:
Results are given in words; binding and its absence hold for the method and conditions named.

Molecular target: alginate lyase VaAly2 from Vibrio alginolyticus ATCC 17749, without its signal peptide (Vibrio alginolyticus ATCC 17749)
Assay: SEC; HiLoad 16/600 Superdex 200 prep-grade column, 50 mM Tris-HCl, 400 mM NaCl, pH 8.0, 1 mL/min; size standards 17, 44, 66 and 158 kDa; both purified

B1: alginate lyase VaAly2 from Vibrio alginolyticus ATCC 17749, without its signal peptide (enzyme, UniProt A0A2I3CRV5 29-521)
chain: PFPNNQETGADILTPVTITASSHDGNVPEQLFDQDIMTRWSANGDGEWAMLDYGSVYEFDAIQASFSKGNERVSKFDVQFSTDGENWVTVIEGAQSSGRALGLERFQFEPAVKARYVRYVGHGNSKNQWNSVTELAAVNCGINACPASHIITDDVVNAEAAMIAQMKAEQKAQKDLLKKNRKGDFGAPIVRPCETTVTCDLSKAMPYPTLPKEPLATNAPGENFDLTRWKLTTPFDHDKDGRADDIDEWDLANGFQHSDIFYTADDGGMVFKSYVKGARTSENTKYARTELRTMLRAGDKSYSTKGVNPNNWVFSSAPVEDQKEAGGVDGTLEATLKIDHATTTGQSHEVGRFIIGQIHDKDDEPIRLYYRKLPDQPTGTVYFAHEKTKTGTEDYYSLVGDMTGEIGDDGIALGEKFSYIIDVKGNTMTVTVKRDGKDDVVQVVDMSDSGYDEGGRYMYFKAGVYNQNMYGNPDDYAQATFYKLKQSFGKYQG
  binding: no binding
